In PubChem BioAssay AID190 (DTP/NCI, 2004):
The list does not hold the whole screen: it gathers tests that were run many times, whatever their T/C, doses with no T/C, and many T/C values between a quarter and a half above the control. Further doses and runs are listed elsewhere. T/C is the treated group as % of the vehicle group. Some doses have a count of surviving animals in place of a T/C: the source files T/C as zero there, which appears to mark a toxic dose or a test without result, not a measured value. Some doses without a T/C left all or most animals alive at the check, yet need not have been tolerated: the source hardly ever lists a survival T/C far under the control, and the zero likely stands for such cases as well. Survivors were counted at the toxicity check, usually on the fifth day, unless a day is given; later deaths do not show. Schedules are NCI's codes, read here as Q, the interval in days (D) or hours (H), X, the number of doses. For survival time, this PubChem deposit counts one and a half times the control or more as active, and values a quarter to a half above the control carry no call in these data; other NCI protocols may use other cut-offs. Some entries were tested several times; the results are listed from low to high. Some T/C values are followed by the survivors on the day toxicity was checked, most often the fifth; without a count, all were alive then. Signs of the kind (2×) give the number of equal values in this list.

System: AKR/Lw mice, AKR lymphoma ip, median survival T/C
Assay: NCI In Vivo Anticancer Drug Screen. Data for tumor model Lymphoma AKR (Transplanted) (intraperitoneal) in AKR/Lw mice
Details: T/C endpoint: median survival time, higher T/C = longer survival
Description: The antitumor activity of compounds was measured in mice bearing transplantable tumors. Survival or tumor size were measured and the results are expressed as the measurement made in the treated group (T) divided by the measurement made in the vehicle treated control group (C). The tumor model used in this assay is Lymphoma AKR (Transplanted) (intraperitoneal) in AKR/Lw mice

[1] = dose: 50.0 mg/kg/injection, schedule: Q01DX009 (ip), vehicle: saline
[2] = dose: 100.0 mg/kg/injection, schedule: Q01DX009 (ip), vehicle: saline
[3] = dose: 150.0 mg/kg/injection, schedule: Q04DX003 (ip), vehicle: Klucel (hydroxypropylcellulose) (HPC)
[4] = dose: 400.0 mg/kg/injection, schedule: Q01DX009 (ip), vehicle: Klucel (hydroxypropylcellulose) (HPC)
[5] = dose: 400.0 mg/kg/injection, schedule: Q04DX003 (ip), vehicle: Klucel (hydroxypropylcellulose) (HPC)
[6] = dose: 500.0 mg/kg/injection, schedule: Q04DX003 (ip), vehicle: Klucel (hydroxypropylcellulose) (HPC)
[7] = dose: 600.0 mg/kg/injection, schedule: Q04DX003 (ip), vehicle: saline

## CN(C)/N=N/c1nc[nH]c1C(N)=O
dose: 12.5 mg/kg/injection, schedule: Q01DX009 (ip), vehicle: saline
  survivor count: 10 of 10
dose: 50.0 mg/kg/injection, schedule: Q01DX009 (ip), vehicle: Klucel (hydroxypropylcellulose) (HPC)
  T/C: 126 % of control [9 of 10 alive]
[1]
  T/C: 118 [9 of 10 alive], 131, 140 % of control [9 of 10 alive]
  survivor count: 10 of 10
dose: 65.0 mg/kg/injection, schedule: Q01DX005 (ip), vehicle: Klucel (hydroxypropylcellulose) (HPC)
  T/C: 144 % of control
dose: 100.0 mg/kg/injection, schedule: Q01DX001 (ip), vehicle: saline
  T/C: 125 % of control
dose: 100.0 mg/kg/injection, schedule: Q01DX009 (ip), vehicle: Klucel (hydroxypropylcellulose) (HPC)
  T/C: 141 % of control [9 of 10 alive]
[2]
  T/C: 112, 122, 133, 163 % of control
  survivor count: 8 of 10
[3]
  T/C: 125 and 126 % of control
  survivor count: 10 of 10
dose: 150.0 mg/kg/injection, schedule: Q04DX003 (ip), vehicle: saline, evaluated on day 45
  T/C: 90 [9 of 10 alive], 113 (2×), 121 % of control
dose: 150.0 mg/kg/injection, schedule: Q04DX003 (ip), vehicle: saline, evaluated on day 60
  T/C: 125 % of control
dose: 200.0 mg/kg/injection, schedule: Q01DX001 (ip), vehicle: Klucel (hydroxypropylcellulose) (HPC)
  T/C: 127 % of control
dose: 200.0 mg/kg/injection, schedule: Q01DX009 (ip), vehicle: Klucel (hydroxypropylcellulose) (HPC)
  T/C: 131 % of control
dose: 200.0 mg/kg/injection, schedule: Q01DX009 (ip), vehicle: saline
  T/C: 89, 105, 123, 140 % of control
dose: 300.0 mg/kg/injection, schedule: Q01DX005 (ip), vehicle: Klucel (hydroxypropylcellulose) (HPC)
  survivor count: 10 of 10
dose: 300.0 mg/kg/injection, schedule: Q04DX003 (ip), vehicle: Klucel (hydroxypropylcellulose) (HPC)
  T/C: 90 [9 of 10 alive], 102 [9 of 10 alive], 105, 130 [9 of 10 alive], 141 % of control [9 of 10 alive]
dose: 300.0 mg/kg/injection, schedule: Q04DX003 (ip), vehicle: saline, evaluated on day 45
  T/C: 113, 115, 135, 142 % of control
dose: 300.0 mg/kg/injection, schedule: Q04DX003 (ip), vehicle: saline, evaluated on day 60
  T/C: 140 % of control
dose: 400.0 mg/kg/injection, schedule: Q01DX001 (ip), vehicle: Klucel (hydroxypropylcellulose) (HPC)
  T/C: 94, 105, 113, 117 % of control
dose: 400.0 mg/kg/injection, schedule: Q01DX005 (ip), vehicle: Klucel (hydroxypropylcellulose) (HPC)
  survivor count: 10 of 10
dose: 400.0 mg/kg/injection, schedule: Q01DX005 (ip), vehicle: water
  survivor count: 10 of 10
[4]
  T/C: 128 % of control
  survivor count: 9 of 10
dose: 400.0 mg/kg/injection, schedule: Q01DX009 (ip), vehicle: saline
  T/C: 146 % of control [9 of 10 alive]
[5]
  T/C: 87, 108, 126, 133 % of control
  survivor count: 10 of 10
dose: 500.0 mg/kg/injection, schedule: Q01DX001 (ip), vehicle: Klucel (hydroxypropylcellulose) (HPC)
  T/C: 129 % of control
[6]
  T/C: 126 % of control [9 of 10 alive]
  survivor count: 10 of 10
[7]
  T/C: 97, 109, 110, 113 % of control
  survivor count: 9 of 10
dose: 800.0 mg/kg/injection, schedule: Q01DX005 (ip), vehicle: water
  survivor count: 5 of 9
